This is one part of the list.
Compound: COc1ccc(Cn2ccc3ccc(C(=O)NO)cc32)cc1
Test: dose-dependent thermal stabilisation call (2D-TPP, DLPTP, 10% FDR) (binary (1 = stabilised)); higher = stabilised by the compound
Conditions: system: HL-60 intact cells; concentration range 0.04-10 µM

Protein sequences, listed by entry. Tags and fused reporters are not part of them. Lines headed by an entry give the natural chain unless they say otherwise; changes in a name come on top.
UniProt P50995, whole entry: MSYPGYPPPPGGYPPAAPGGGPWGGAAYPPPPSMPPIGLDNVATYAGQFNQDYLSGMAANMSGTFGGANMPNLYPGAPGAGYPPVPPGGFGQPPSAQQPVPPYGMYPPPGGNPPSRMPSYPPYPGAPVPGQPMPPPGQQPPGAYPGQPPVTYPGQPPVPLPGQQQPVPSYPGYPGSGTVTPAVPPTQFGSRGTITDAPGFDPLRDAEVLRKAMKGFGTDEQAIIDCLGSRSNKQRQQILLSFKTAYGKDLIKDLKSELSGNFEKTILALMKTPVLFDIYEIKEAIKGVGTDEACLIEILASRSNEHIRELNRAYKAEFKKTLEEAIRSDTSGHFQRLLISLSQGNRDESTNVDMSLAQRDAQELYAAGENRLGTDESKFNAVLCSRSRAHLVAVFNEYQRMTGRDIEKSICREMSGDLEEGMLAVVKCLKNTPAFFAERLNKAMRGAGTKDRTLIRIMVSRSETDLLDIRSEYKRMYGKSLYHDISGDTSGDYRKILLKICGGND
UniProt Q96A54: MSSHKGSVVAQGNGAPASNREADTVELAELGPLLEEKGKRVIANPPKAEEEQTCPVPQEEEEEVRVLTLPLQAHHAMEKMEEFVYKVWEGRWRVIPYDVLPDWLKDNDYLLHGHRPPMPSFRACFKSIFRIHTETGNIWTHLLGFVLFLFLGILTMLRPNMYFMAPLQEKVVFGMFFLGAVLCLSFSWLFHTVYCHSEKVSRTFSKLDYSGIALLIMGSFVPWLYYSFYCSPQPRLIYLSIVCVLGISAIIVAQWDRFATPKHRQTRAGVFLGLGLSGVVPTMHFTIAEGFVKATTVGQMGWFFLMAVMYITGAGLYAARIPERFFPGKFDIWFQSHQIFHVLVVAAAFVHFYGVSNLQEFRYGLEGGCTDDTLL
UniProt Q9UKA4: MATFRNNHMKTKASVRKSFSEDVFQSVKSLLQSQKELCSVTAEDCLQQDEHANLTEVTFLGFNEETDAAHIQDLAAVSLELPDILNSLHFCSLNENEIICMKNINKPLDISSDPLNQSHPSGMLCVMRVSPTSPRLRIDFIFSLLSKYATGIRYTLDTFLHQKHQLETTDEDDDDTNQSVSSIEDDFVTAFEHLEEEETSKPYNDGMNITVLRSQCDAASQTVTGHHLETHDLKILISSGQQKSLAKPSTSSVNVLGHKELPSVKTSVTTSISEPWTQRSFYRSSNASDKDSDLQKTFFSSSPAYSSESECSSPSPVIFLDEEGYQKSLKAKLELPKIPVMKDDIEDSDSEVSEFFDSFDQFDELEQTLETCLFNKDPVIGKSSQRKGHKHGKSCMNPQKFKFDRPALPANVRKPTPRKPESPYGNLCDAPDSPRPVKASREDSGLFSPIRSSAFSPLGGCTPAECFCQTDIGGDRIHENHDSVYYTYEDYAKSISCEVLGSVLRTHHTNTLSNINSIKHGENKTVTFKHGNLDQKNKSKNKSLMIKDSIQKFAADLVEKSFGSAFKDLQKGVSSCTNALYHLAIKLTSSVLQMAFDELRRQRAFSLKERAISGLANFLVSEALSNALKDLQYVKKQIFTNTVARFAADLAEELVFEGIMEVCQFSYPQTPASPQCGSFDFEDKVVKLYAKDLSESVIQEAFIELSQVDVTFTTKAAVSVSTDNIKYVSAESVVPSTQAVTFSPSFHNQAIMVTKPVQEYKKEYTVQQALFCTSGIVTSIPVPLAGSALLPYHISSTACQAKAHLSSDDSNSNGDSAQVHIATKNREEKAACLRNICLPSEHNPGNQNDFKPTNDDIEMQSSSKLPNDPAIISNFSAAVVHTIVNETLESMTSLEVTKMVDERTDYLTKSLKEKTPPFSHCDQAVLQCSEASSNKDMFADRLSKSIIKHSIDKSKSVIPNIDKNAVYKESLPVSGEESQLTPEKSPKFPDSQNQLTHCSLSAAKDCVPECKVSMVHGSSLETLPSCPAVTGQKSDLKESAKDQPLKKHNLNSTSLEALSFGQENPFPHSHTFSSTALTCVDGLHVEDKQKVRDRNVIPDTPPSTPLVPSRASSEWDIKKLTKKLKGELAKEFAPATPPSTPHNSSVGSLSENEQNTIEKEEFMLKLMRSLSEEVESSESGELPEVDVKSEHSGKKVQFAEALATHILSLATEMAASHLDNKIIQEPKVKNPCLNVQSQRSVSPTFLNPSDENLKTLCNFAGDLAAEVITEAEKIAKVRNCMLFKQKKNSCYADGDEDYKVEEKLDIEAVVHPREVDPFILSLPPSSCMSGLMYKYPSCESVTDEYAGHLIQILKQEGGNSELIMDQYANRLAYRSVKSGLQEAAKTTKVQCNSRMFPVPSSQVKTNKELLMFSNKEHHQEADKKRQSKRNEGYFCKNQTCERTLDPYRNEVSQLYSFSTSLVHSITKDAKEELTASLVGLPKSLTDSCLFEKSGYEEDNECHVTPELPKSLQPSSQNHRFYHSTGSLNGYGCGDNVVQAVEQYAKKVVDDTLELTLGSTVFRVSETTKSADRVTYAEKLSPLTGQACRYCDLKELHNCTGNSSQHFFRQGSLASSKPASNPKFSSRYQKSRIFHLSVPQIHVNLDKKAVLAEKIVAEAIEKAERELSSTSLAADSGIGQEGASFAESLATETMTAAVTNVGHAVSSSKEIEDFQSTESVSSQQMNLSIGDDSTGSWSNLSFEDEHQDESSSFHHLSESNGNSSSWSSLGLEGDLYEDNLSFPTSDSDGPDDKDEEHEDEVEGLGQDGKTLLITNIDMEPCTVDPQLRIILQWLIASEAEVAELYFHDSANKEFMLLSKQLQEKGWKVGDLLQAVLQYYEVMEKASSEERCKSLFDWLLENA
UniProt Q9ULX6: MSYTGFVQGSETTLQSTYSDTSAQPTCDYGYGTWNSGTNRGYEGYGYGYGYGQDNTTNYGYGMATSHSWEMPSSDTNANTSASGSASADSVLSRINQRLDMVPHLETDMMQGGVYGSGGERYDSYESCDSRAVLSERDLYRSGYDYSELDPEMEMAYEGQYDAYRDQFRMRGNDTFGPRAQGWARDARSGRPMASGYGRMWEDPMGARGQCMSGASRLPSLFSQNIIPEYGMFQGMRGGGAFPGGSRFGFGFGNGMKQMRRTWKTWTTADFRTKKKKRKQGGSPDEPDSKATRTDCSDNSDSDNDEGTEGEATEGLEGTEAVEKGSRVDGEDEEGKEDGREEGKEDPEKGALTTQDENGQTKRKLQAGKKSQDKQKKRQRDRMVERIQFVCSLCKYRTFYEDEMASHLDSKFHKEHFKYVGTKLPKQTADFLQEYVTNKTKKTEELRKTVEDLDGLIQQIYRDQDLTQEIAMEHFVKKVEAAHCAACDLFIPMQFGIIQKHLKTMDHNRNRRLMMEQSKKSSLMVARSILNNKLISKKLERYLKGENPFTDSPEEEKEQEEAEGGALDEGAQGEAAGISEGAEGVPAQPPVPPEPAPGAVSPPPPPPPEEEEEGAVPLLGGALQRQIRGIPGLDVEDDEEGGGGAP
UniProt Q9BV57: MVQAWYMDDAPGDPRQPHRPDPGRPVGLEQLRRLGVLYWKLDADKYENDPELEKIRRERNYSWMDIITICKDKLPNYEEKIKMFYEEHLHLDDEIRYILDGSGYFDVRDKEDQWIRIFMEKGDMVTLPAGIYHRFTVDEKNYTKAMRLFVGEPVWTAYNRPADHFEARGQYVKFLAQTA
UniProt Q9UEY8: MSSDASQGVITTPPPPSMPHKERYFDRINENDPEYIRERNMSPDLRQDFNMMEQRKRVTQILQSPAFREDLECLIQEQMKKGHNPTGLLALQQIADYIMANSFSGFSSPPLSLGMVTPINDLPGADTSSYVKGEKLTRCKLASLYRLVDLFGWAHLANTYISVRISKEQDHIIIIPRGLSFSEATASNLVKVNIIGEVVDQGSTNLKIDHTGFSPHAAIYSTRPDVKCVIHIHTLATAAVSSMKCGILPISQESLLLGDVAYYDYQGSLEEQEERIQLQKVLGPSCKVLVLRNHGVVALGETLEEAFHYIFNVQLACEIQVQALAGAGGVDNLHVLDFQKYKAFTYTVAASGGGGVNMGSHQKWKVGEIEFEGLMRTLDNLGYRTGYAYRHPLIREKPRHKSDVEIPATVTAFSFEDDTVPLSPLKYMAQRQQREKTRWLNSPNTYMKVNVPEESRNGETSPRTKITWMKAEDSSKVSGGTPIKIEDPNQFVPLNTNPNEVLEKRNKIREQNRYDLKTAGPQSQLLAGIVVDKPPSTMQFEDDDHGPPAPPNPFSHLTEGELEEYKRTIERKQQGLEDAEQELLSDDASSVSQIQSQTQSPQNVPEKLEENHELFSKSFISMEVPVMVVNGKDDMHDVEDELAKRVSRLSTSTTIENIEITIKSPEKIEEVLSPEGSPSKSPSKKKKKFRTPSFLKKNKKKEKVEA
UniProt P07741: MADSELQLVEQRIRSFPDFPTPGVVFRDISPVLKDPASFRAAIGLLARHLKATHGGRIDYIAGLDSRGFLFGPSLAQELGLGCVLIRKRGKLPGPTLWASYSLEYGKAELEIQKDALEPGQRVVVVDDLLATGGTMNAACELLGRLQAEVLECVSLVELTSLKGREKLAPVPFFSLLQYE
UniProt O14734: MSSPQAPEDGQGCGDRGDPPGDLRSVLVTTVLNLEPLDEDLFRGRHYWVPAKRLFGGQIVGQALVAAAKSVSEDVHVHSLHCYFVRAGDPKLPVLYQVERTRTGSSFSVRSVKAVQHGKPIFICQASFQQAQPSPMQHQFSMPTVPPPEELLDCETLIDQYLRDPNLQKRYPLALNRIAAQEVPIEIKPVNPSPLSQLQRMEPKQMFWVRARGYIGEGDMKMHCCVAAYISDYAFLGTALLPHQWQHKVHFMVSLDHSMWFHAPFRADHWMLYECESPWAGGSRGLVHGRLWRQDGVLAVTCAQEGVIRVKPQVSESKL
UniProt P05067, whole entry: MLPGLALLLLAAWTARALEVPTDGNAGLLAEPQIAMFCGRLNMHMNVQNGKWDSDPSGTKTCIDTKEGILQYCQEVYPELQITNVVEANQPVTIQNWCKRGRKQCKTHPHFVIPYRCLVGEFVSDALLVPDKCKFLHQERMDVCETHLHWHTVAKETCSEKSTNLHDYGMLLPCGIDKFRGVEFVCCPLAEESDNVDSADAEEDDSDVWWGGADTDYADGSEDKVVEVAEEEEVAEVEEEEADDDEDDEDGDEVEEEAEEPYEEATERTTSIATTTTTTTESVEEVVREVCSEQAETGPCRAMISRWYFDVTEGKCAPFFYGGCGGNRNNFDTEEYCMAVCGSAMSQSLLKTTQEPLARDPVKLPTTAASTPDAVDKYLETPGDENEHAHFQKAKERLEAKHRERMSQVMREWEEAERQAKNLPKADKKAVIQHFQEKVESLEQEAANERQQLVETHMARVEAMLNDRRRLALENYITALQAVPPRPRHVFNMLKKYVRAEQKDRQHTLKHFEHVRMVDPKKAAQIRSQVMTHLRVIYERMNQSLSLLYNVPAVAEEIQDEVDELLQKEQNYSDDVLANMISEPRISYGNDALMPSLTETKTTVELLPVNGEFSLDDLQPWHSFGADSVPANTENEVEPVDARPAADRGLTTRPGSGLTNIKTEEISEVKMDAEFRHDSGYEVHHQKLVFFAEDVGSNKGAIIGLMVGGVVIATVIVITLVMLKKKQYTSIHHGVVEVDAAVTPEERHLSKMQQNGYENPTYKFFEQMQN

Target	dose-dependent thermal stabilisation call
ANXA11 (UniProt P50995)	inactive: 0
AGAP2 (UniProt Q99490)	inactive: 0
ADIPOR1 (UniProt Q96A54)	inactive: 0
AKAP11 (UniProt Q9UKA4)	inactive: 0
ACIN1 (UniProt Q9UKV3)	inactive: 0
AKAP8L (UniProt Q9ULX6)	inactive: 0
ADI1 (UniProt Q9BV57)	inactive: 0
ADD3 (UniProt Q9UEY8)	inactive: 0
APRT (UniProt P07741)	inactive: 0
ACOT8 (UniProt O14734)	inactive: 0
APP (UniProt P05067)	inactive: 0

2 entries picked at random from those above:
Target	dose-dependent thermal stabilisation call
AKAP11 (UniProt Q9UKA4)	inactive: 0
AKAP8L (UniProt Q9ULX6)	inactive: 0

Reference: the supplement of paper PMC7666118
